Experimental data published in the supplement of paper PMC12067093, “Discovery and optimisation of a covalent ligand for TRIM25 and its application to targeted protein ubiquitination” (Chemical Science, 2025).
The list shows a part of the results.

Sequences of proteins named here, by UniProt entry; tags and fusion partners are left off. A change or cut given only in a name is not applied to a line headed by its entry.
UniProt P30626: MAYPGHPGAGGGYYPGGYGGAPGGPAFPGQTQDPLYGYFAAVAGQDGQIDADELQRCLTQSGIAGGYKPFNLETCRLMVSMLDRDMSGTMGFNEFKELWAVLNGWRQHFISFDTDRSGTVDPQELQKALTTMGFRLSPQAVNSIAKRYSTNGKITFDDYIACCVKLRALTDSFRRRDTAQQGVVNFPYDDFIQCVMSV
UniProt P09132: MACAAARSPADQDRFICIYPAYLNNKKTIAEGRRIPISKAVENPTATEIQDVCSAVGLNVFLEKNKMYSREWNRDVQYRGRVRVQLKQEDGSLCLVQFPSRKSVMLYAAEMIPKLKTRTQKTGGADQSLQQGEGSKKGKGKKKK
UniProt Q9UNH7: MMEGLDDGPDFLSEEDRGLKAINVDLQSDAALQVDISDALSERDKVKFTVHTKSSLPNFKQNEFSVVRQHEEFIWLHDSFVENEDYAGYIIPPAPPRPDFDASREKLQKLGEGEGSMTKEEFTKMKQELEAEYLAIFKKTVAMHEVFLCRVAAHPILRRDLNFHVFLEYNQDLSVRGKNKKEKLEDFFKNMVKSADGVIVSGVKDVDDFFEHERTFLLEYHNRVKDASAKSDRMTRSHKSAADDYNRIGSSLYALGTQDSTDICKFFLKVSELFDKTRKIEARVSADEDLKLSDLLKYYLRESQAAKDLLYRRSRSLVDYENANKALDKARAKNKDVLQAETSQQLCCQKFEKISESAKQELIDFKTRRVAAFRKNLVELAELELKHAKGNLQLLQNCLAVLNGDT
UniProt P19623: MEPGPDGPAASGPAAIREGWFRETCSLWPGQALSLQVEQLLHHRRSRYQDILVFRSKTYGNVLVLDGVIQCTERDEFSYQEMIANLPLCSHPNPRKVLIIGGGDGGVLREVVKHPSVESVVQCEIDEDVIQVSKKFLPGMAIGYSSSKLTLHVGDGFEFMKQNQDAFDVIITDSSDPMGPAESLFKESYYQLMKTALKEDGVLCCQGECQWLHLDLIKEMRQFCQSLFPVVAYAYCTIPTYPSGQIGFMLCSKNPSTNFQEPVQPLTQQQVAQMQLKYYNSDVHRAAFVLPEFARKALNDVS
UniProt Q5W111: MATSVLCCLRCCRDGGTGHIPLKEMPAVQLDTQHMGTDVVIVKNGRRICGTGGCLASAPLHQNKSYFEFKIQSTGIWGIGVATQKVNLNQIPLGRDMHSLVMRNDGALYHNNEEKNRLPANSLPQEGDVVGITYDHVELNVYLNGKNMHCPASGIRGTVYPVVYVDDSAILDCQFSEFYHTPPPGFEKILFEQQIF
UniProt Q92673: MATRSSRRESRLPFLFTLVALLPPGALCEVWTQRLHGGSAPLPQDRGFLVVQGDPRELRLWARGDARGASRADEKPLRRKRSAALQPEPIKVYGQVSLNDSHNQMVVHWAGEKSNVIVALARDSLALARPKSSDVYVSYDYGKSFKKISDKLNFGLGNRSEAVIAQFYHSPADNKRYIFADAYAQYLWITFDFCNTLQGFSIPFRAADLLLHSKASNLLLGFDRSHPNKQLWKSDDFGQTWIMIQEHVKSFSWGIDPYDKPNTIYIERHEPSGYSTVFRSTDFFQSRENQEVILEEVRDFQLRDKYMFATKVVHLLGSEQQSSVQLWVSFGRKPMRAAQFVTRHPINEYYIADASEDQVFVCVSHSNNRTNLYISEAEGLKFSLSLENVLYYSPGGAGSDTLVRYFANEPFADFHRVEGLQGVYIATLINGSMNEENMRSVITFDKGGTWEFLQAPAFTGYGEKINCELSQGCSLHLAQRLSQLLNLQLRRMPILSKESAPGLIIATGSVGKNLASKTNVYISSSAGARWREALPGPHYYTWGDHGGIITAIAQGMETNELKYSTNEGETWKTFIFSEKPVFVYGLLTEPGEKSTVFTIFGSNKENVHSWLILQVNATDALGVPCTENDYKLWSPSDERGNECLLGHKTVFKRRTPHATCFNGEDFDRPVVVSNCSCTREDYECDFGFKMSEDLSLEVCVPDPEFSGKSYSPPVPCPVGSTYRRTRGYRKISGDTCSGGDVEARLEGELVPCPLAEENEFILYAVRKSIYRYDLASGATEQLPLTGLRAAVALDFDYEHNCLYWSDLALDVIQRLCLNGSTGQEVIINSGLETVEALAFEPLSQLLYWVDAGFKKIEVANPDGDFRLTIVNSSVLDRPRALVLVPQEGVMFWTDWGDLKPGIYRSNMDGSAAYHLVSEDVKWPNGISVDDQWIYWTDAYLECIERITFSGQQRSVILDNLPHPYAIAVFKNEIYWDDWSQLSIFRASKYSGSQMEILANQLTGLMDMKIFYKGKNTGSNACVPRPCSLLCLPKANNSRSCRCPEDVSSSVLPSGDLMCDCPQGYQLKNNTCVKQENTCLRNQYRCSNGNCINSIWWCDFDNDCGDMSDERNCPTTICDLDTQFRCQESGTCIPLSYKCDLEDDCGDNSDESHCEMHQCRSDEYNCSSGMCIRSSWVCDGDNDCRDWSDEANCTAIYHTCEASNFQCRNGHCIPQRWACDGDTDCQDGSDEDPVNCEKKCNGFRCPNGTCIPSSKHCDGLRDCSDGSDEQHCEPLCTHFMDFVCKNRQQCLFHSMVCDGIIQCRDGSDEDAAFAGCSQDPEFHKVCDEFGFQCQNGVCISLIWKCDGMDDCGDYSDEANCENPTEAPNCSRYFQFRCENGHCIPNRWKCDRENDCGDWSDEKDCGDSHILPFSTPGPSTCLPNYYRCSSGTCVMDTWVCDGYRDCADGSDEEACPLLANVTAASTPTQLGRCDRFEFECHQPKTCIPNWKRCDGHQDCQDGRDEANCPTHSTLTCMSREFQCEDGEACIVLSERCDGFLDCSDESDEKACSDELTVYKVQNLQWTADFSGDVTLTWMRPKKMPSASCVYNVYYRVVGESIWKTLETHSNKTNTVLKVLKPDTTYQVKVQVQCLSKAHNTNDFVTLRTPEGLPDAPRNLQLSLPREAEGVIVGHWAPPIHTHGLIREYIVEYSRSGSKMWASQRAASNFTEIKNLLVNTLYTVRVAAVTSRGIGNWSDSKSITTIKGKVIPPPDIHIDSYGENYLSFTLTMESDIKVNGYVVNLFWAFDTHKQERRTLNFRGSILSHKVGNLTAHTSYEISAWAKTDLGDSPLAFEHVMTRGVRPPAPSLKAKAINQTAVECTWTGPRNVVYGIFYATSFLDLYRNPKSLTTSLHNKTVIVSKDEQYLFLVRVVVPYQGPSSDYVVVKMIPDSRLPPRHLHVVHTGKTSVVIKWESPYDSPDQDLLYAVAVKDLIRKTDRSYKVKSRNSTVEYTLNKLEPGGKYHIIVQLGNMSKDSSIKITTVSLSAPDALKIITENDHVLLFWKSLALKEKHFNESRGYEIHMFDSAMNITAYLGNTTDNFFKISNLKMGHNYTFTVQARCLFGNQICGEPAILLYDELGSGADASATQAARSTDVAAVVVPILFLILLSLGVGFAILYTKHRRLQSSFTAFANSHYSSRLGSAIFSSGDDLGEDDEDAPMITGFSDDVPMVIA
UniProt Q5M775: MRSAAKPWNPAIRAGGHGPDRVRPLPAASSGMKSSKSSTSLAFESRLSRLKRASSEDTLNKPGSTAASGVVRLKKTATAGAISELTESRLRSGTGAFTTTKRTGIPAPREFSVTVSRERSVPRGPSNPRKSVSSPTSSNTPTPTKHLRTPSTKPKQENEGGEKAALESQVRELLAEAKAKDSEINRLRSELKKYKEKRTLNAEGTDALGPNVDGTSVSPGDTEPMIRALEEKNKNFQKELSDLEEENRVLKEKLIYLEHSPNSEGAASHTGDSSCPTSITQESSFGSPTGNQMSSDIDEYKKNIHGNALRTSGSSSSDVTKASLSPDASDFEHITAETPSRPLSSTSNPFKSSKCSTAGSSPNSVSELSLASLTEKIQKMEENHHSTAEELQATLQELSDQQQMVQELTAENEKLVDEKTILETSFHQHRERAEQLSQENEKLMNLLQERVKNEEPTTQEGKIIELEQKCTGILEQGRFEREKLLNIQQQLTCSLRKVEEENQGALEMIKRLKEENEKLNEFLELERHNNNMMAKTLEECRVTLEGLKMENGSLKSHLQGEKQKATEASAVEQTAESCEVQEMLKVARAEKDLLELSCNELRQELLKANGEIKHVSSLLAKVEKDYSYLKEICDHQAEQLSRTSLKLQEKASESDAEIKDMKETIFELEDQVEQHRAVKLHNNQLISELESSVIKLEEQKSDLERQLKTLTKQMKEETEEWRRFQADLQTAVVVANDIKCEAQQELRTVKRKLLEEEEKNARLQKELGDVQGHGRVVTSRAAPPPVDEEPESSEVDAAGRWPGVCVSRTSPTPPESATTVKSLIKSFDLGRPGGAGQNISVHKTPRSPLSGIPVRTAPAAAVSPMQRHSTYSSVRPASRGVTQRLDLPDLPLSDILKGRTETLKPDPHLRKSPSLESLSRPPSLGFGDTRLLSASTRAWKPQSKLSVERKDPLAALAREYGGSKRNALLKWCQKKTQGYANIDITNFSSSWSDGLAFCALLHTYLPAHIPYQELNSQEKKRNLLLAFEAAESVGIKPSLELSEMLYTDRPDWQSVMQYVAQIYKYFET
UniProt Q8N5C6: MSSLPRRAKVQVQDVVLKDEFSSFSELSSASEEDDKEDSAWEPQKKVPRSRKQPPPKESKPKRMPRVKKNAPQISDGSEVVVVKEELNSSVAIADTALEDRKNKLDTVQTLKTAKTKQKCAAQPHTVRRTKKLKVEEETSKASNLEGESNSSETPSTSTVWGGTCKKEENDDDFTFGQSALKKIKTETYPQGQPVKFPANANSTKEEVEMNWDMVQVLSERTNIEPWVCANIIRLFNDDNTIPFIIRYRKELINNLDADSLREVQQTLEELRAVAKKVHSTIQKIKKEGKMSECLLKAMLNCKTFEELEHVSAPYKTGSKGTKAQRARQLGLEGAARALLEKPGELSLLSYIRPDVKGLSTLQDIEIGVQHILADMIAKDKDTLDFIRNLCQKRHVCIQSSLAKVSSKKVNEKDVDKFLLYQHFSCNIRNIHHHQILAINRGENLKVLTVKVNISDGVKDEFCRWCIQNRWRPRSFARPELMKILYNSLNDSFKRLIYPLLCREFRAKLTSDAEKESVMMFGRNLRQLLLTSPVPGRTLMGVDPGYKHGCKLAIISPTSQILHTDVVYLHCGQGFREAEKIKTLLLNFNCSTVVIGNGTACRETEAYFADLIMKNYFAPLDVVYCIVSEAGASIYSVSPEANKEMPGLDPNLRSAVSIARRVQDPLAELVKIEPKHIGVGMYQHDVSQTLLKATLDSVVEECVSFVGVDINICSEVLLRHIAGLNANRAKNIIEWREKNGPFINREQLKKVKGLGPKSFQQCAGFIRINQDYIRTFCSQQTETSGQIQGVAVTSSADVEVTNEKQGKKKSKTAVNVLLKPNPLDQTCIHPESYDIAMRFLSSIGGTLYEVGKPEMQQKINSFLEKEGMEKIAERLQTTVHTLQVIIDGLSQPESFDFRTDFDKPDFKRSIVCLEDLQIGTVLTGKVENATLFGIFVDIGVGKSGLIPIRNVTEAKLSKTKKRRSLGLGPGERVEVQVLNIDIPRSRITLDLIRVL
UniProt Q8NB90: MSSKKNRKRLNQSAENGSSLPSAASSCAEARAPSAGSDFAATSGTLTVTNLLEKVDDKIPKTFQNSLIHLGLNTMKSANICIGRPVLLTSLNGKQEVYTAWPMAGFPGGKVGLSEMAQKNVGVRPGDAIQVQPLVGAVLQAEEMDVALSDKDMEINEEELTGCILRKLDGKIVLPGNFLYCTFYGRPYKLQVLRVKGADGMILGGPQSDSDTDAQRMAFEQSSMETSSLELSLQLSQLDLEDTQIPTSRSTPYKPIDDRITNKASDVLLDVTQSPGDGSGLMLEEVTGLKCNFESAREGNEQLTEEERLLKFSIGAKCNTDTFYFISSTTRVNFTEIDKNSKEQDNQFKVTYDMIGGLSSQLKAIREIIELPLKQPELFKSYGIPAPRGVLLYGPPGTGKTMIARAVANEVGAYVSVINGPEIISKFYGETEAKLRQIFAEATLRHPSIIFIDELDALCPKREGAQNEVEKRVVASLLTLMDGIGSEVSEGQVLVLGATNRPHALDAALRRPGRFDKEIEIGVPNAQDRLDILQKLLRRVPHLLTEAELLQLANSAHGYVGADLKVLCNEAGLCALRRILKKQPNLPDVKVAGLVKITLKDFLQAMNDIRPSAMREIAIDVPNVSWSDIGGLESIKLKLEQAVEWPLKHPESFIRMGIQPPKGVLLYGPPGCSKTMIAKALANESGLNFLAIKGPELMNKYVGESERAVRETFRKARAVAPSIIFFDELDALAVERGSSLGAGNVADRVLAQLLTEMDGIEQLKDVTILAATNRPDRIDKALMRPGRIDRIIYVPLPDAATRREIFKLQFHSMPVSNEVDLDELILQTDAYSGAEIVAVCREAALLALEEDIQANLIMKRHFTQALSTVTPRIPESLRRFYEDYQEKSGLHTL
UniProt Q9UMY4: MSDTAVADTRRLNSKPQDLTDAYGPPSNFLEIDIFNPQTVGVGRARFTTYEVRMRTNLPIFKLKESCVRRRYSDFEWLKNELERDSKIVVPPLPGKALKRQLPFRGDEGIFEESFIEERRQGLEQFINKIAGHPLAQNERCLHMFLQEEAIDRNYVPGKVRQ

Compound: Cc1cc(ccc1-c1ccccc1)C(=O)N1CCCN(CC1)C(=O)CCl [compound 10]
Test: probe-labelled cysteine peptide fold change vs DMSO (competition) (log2 fold change); higher = less target engagement (more negative = stronger competition)
Conditions: THP-1, incubation time: 4 h
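Note: competitive profiling in live THP-1 cells: cysteine peptides tagged with an iodoacetamide desthiobiotin (IA-DTB) probe, intensity after compound treatment relative to DMSO-treated cells.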

Row | Target | probe-labelled cysteine peptide fold change (10 µM) | probe-labelled cysteine peptide fold change (50 µM)
1 | SNX5_Q9Y5X3_250_NVADDYIHTAACLHSLALEEPTVIK (UniProt Q9Y5X3) | -0.216 | -0.0124
2 | SPR_P35270_159_TVVNISSLCALQPFK (UniProt P35270) | -0.0109 | -0.165
3 | SRP72_O76094_349_ISASLQSQSPEHLLPVLIQAAQLCR (UniProt O76094) | 0.103 | -0.17
4 | SPRYD3_Q8NCJ5_272_CYIALGLAR (UniProt Q8NCJ5) | 0.214 | 0.233
5 | SPATA20_Q8TB22_671_CVCLLTAFSER (UniProt Q8TB22) | -0.0396 | -0.181
6 | SPAG9_O60271_761_NQEELSSLVWICTSTHSATK (UniProt O60271) | 0.263 | 0.124
7 | SRI_P30626_163_ITFDDYIACCVK (UniProt P30626) | -0.0625 | 0.000946
8 | SPTBN1_Q01082_624_VAHMEFCYQELCQLAAER (UniProt Q01082) | 0.0239 | 0.0283
9 | SNTB1_Q13884_515_DGEIQLDLHSCPK (UniProt Q13884) | -0.136 | 1
10 | SP110_Q9HB58_283_CIWSTPK (UniProt Q9HB58) | -0.483 | -0.666
11 | SPART_Q8N0X7_504_VSQFLVDGVCTVANCVGK (UniProt Q8N0X7) | -0.0452 | -0.831
12 | SRP19_P09132_94_QEDGSLCLVQFPSR (UniProt P09132) | 0.368 | 0.591
13 | SRP19_P09132_17_FICIYPAYLNNK (UniProt P09132) | 0.124 | 0.25
14 | SNX6_Q9UNH7_348_DVLQAETSQQLCCQK (UniProt Q9UNH7) | 0.158 | 0.0542
15 | SRM_P19623_25_ETCSLWPGQALSLQVEQLLHHRR (UniProt P19623) | -0.0204 | 0.0529
16 | SPTLC1_O15269_133_YGVGTCGPR (UniProt O15269) | -0.178 | -0.348
17 | SP3_Q02447_683+686_KFVCPECSK (UniProt Q02447) | -0.0874 | -0.285
18 | SRI_P30626_194_RDTAQQGVVNFPYDDFIQCVMSV (UniProt P30626) | 0.258 | 0.269
19 | SRCAP_Q6ZRS2_141_GHWDYLCEEMQWLSADFAQER (UniProt Q6ZRS2) | 0.0867 | 0.529
20 | SRPRA_P08240_25_GGLVLWCFQGVSDSCTGPVNALIR (UniProt P08240) | 0.101 | 0.155
21 | SP1_P08047_663_WHTGERPFMCTWSYCGK (UniProt P08047) | -0.228 | -0.0476

Row | Target | probe-labelled cysteine peptide fold change (10 µM) | probe-labelled cysteine peptide fold change (50 µM)
22 | SPRYD7_Q5W111_150_NMHCPASGIR (UniProt Q5W111) | 0.0816 | 0.0102
23 | SQSTM1_Q13501_113_DHRPPCAQEAPR (UniProt Q13501) | 0.0561 | -0.536
24 | SNX6_Q9UNH7_347+348_DVLQAETSQQLCCQK (UniProt Q9UNH7) | -0.288 | -0.619
25 | SNX18_Q96RF0_30_EHEVLSLCSEQDIEGWLEGVNSR (UniProt Q96RF0) | -0.133 | -0.0822
26 | SORL1_Q92673_1302_QQCLFHSMVCDGIIQCR (UniProt Q92673) | -0.13 | 0.101
27 | SORL1_Q92673_1158_CDLEDDCGDNSDESHCEMHQCR (UniProt Q92673) | -0.152 | -0.346
28 | SRM_P19623_89_DEFSYQEMIANLPLCSHPNPR (UniProt P19623) | 0.0756 | 0.233
29 | SPOUT1_Q5T280_239_LNQQQHPDCK (UniProt Q5T280) | 0.156 | -0.184
30 | SNX20_Q7Z614_236_LTAHCPAAAVPALCAVLLCHR (UniProt Q7Z614) | -0.104 | -0.142
31 | SPECC1_Q5M775_598_DLLELSCNELRQELLK (UniProt Q5M775) | -0.205 | -0.713
32 | SNX8_Q9Y5X2_200_ESAQCVGDEFLNCK (UniProt Q9Y5X2) | -0.32 | -0.983
33 | SPRED2_Q7Z698_73_LVVLECYVR (UniProt Q7Z698) | -0.0368 | 0.0489
34 | SRBD1_Q8N5C6_397_RHVCIQSSLAK (UniProt Q8N5C6) | -0.164 | -0.138
35 | SPTAN1_Q13813_1622_GACAGSEDAVK (UniProt Q13813) | 0.207 | 0.0757
36 | SOD1_P00441_112_DGVADVSIEDSVISLSGDHCIIGR (UniProt P00441) | -0.0707 | -0.0212
37 | SPATS2L_Q9NUQ6_263_AAFAELHNCIIDK (UniProt Q9NUQ6) | 0.172 | 0.125
38 | SPATA5_Q8NB90_291_CNFESAR (UniProt Q8NB90) | -0.244 | -0.402
39 | SP100_P23497_248_AEPTESCEQIAVQVNNGDAGR (UniProt P23497) | -0.0959 | -0.26
40 | SPAG1_Q07617_680_QDCDQALQLADGNVK (UniProt Q07617) | -0.171 | 0.0218
41 | SPATA5_Q8NB90_163_DMEINEEELTGCILR (UniProt Q8NB90) | -0.0251 | -0.279
42 | SNX12_Q9UMY4_141_CLHMFLQEEAIDR (UniProt Q9UMY4) | 0.0398 | 0.0747

Reformatted with each value named: part of the list above
SRBD1_Q8N5C6_397_RHVCIQSSLAK (UniProt Q8N5C6)
  probe-labelled cysteine peptide fold change (10 µM) = -0.164
  probe-labelled cysteine peptide fold change (50 µM) = -0.138
SPTAN1_Q13813_1622_GACAGSEDAVK (UniProt Q13813)
  probe-labelled cysteine peptide fold change (10 µM) = 0.207
  probe-labelled cysteine peptide fold change (50 µM) = 0.0757
